{"sequences": {"note": "Sequences of proteins named here, by UniProt entry; tags and fusion partners are left off. A change or cut given only in a name is not applied to a line headed by its entry.", "UniProt P18054": "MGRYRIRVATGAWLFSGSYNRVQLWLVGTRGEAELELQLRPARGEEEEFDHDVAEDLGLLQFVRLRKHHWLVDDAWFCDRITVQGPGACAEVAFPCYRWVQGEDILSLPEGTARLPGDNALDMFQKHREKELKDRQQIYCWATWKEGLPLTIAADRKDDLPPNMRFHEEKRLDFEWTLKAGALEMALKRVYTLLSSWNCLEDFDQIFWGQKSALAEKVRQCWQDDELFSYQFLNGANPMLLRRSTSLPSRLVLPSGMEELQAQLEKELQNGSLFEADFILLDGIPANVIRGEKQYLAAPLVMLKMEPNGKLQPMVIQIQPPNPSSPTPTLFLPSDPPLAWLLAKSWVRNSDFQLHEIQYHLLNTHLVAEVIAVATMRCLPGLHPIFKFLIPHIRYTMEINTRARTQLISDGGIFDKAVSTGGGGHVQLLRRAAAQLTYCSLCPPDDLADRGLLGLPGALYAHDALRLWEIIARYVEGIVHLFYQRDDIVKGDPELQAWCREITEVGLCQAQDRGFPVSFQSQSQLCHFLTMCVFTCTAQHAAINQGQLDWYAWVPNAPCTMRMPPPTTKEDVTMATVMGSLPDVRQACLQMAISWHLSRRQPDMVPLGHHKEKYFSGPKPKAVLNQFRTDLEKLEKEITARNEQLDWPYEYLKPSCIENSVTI"}, "source": "PubChem BioAssay AID1671190", "about": "(National Center for Advancing Translational Sciences (NCATS), 2021)", "note": "Several values for one entry are separate records, joined by “and”; a condition that tells them apart may be missing. Equal entries are not always repeated. The whole screen tested about 580,000 compounds, of which about 6,100 (1.1%) were called active. The inconclusive results got no clear call from the source; some entries with a clear call stand among them for comparison. The call rests on the fitted dose curve; in most records, active means well fitted inhibition curve with a large enough effect; inconclusive means small, poorly fitted or top-dose-only effect, or another doubt; inactive means no such curve, though single readings can be large or run the other way. Potencies beside an inconclusive call are fits to weak or partial responses and may not hold up. On the % scale 0 is the no-effect control and ±100 the full control effect; potency means the concentration at half of the fitted maximal effect."}
{"molecular_target": "Polyunsaturated fatty acid lipoxygenase ALOX12 (Homo sapiens) (UniProt P18054)", "test": "Primary qHTS assay for inhibitors of human arachidonate 12S-lipoxygenase (ALOX12): Round 2", "settings": "purified 12hLO, xylenol orange hydroperoxide absorbance; activity change, negative = inhibition: at 108 µM (top of the series) unless noted", "summary_of_the_method": "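Purified human 12hLO (150 nM final) in 25 mM Hepes, 0.01% Triton X-100, pH 7.0 was preincubated 15 min at room temperature with compound. Then 40 uM arachidonic acid was added, 30 min. Hydroperoxide was read by Fe-XO absorbance ratio 573/405 nm.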"}
{"smiles": "CCCOc1ccc(NC(=O)CC2C(=O)N(c3ccc(C)cc3)C(=O)N2Cc2cccc(OC)c2)cc1", "note": "(centres undefined)", "activity change, negative = inhibition": "inconclusive: -37.9% [inhibitor]"}
{"smiles": "O=C(Cc1ccsc1)N1CCC2(CC1)CN(Cc1ccccc1)CC2CO", "note": "(centres undefined)", "Potency": "inconclusive: 14.1 µM [inhibitor, partial curve, poor fit]"}
{"smiles": "COc1ccc(-c2cc(C(=O)c3c(N)n(C)c(=O)n(C)c3=O)c3ccccc3n2)cc1OC", "Potency": "inconclusive: 79.4 µM [inhibitor, single point]"}
{"smiles": "CC(C)CC(=O)NC(=S)Nc1ccccn1", "Potency": "inconclusive: 50.1 µM [inhibitor, partial curve, poor fit]"}
{"smiles": "C#CCOc1ccc(C2C(C#N)=C(N)Oc3cc(O)ccc32)cc1", "note": "(centres undefined)", "Potency": "active: 28.2 µM"}
{"smiles": "CCOC(=O)C1CCN(c2c(C(=O)c3ccc(C)cc3)cnc3ccc(F)cc23)CC1", "Potency": "inconclusive: 56.2 µM [inhibitor, partial curve, poor fit]"}
{"smiles": "CC1CCc2nc(NC(=O)C3CCCO3)sc2C1", "note": "(centres undefined)", "Potency": "inconclusive: 50.1 µM [inhibitor, partial curve, poor fit]"}
{"smiles": "Cn1ccnc1SCC(=O)NC1(C#N)CCCCCC1", "Potency": "inactive"}
{"smiles": "O=C1CCN(C(=O)Nc2ccccc2F)CCCC(C(=O)NCc2ccncc2)CCN1", "note": "(centres undefined)", "Potency": "inconclusive: 17.8 µM [inhibitor, single point]"}
{"smiles": "Cc1cccc(C(=O)NCC(=O)OC(C)C(=O)Nc2ccc(Cl)cn2)c1", "note": "(centres undefined)", "Potency": "inconclusive: 44.7 µM [inhibitor, partial curve, poor fit]"}
{"smiles": "CCCCNc1c(-c2ccc(SC3CCCCC3)c(OC)c2)nc2ccc(C)cn12", "Potency": "inactive and inconclusive: 50.1 µM [inhibitor, partial curve, poor fit]"}
{"smiles": "Cc1nc2c(C(=O)NCc3ccc4c(c3)OCO4)cnn2c(C)c1Cc1ccc(F)cc1Cl", "Potency": "inactive"}
{"smiles": "COC(=O)c1ccc2c(c1)N(Cc1nc(-c3ccc(Cl)cc3)oc1C)C(=O)C1CCCN21", "note": "(centres undefined)", "Potency": "inconclusive: 44.7 µM [inhibitor, partial curve, poor fit]"}
{"smiles": "Cc1c(NC(=O)/C(C#N)=C/c2ccccc2)c(=O)n(-c2ccccc2)n1C", "Potency": "inactive"}
{"smiles": "CCOC(=O)C(C)Sc1nc2c(c(=O)[nH]c(=O)n2C)n1Cc1ccc(Cl)cc1", "note": "(centres undefined)", "Potency": "inconclusive: 70.8 µM [inhibitor, single point] and inconclusive: 56.2 µM [inhibitor, partial curve, poor fit]"}
{"smiles": "COc1cc(NC(=O)c2cccc(F)c2)ccc1NC(=O)c1cc2ccccc2o1", "Potency": "inconclusive: 126 µM [inhibitor, single point]"}
{"smiles": "Cc1cc(Cl)ccc1-n1nc(C)c([C@@H]2C=C[C@@H](NC(=O)c3ccc(N(C)C)cc3)C2)c1C", "Potency": "inactive"}
{"smiles": "Cc1cccnc1Nc1nc(-c2ccc(O)cc2)cs1", "Potency": "inconclusive: 50.1 µM [inhibitor, partial curve, poor fit]"}
{"smiles": "CC1CCC2(CC1)N=C(c1ccccc1)C(=O)N2CC(=O)Nc1ccc(F)c(Cl)c1", "note": "(centres undefined)", "Potency": "inconclusive: 158 µM [inhibitor, partial curve, poor fit]"}
{"smiles": "CCOC(=O)c1cccc(NS(=O)(=O)c2cc3[nH]c(=O)c(=O)[nH]c3cc2C)c1", "Potency": "inconclusive: 100 µM [inhibitor, partial curve, poor fit]"}
{"smiles": "O=C(C1COc2ccccc2O1)N1CCN(c2ccccc2)CC1", "note": "(centres undefined)", "Potency": "inconclusive: 56.2 µM [inhibitor, partial curve, poor fit]"}
{"smiles": "C[C@@H](NC(=O)c1cccs1)c1c(-c2ccc(F)cc2)noc1C(=O)O", "Potency": "inconclusive: 35.5 µM [inhibitor, single point]"}
{"smiles": "O=C(/C=C/c1ccc(F)cc1)N(C1CCCCC1)C1CCCCC1", "Potency": "inconclusive: 100 µM [inhibitor, partial curve, poor fit]"}
{"smiles": "Cc1ccc(CN(CC(=O)N2CCOCC2)S(=O)(=O)c2ccc(Cl)cc2)cc1", "activity change, negative = inhibition": "inconclusive: -31.1% [inhibitor]"}
{"smiles": "CCOC(=O)/C(C#N)=C/c1cc(Cl)ccc1OCc1ccc(Cl)cc1Cl", "Potency": "inactive"}
{"smiles": "COc1cccc(CNC(=O)COCc2cc(-c3ccc4c(c3)OCO4)on2)c1", "Potency": "inconclusive: 141 µM [inhibitor, partial curve, poor fit]"}
{"smiles": "CCc1ccc(NC(=O)c2nnn(Cc3cccc(C(F)(F)F)c3)c2N)cc1", "Potency": "inconclusive: 63.1 µM [inhibitor, partial curve, poor fit]"}
{"smiles": "CC(C)(C)Cc1c(-c2ccccc2)nc2ccc(Br)cn12", "Potency": "inconclusive: 89.1 µM [inhibitor, single point]"}
{"smiles": "CN(Cc1ccccc1)S(=O)(=O)c1ccc(Cl)c(C(=O)OCC(N)=O)c1", "Potency": "inconclusive: 126 µM [inhibitor, single point]"}
{"smiles": "COc1ccc(-n2nnnc2SCC(=O)NCCc2ccccc2)cc1OC", "Potency": "inconclusive: 50.1 µM [inhibitor, partial curve, poor fit]"}
{"smiles": "COc1cc(/C=C2\\C(=N)N3N=C(S(C)(=O)=O)SC3=NC2=O)ccc1OS(=O)(=O)c1ccc(C)cc1", "Potency": "active: 44.7 µM"}
{"smiles": "COc1ccc(NC(=S)NC(=O)c2ccc3c(c2)OCCO3)cc1", "Potency": "active: 7.08 µM"}
{"smiles": "CCc1ccc(NC(=O)C(C)OC(=O)CC(NC(C)=O)c2ccccc2)cc1", "note": "(centres undefined)", "Potency": "inconclusive: 126 µM [inhibitor, partial curve, poor fit]"}
{"smiles": "COc1ccc(NS(=O)(=O)c2ccc3oc(SC)nc3c2)cc1", "Potency": "inconclusive: 50.1 µM [inhibitor, partial curve, poor fit]"}
{"smiles": "CC(=O)c1cccc(NC(=S)NC(=O)c2cccc(C)c2)c1", "Potency": "active: 31.6 µM"}
{"smiles": "CCOc1cccc(=O)c2c(C)n(CC3CCCO3)c(C)c12", "note": "(centres undefined)", "Potency": "inconclusive: 39.8 µM [inhibitor, full curve, poor fit]"}
{"smiles": "Cc1cc(C)c2cc(CN(CCO)Cc3nnnn3Cc3ccc(F)cc3)c(=O)[nH]c2c1", "Potency": "inconclusive: 31.6 µM [inhibitor, partial curve, poor fit]"}
{"smiles": "CCS(=O)(=O)N1CCCOCCNC(=O)[C@@H]2CCC[C@@H]21", "Potency": "inactive"}
{"smiles": "CN1CC(=O)N(C2CCNC2)Cc2c1ncnc2N1CCC(N2CCCCC2)CC1", "note": "(centres undefined)", "Potency": "inconclusive: 1.8 µM [inhibitor, partial curve, poor fit]"}
